From article PMC7032568 come the findings set out here.

Protein sequences, listed by entry. Tags and fused reporters are not part of them.
UniProt P28340: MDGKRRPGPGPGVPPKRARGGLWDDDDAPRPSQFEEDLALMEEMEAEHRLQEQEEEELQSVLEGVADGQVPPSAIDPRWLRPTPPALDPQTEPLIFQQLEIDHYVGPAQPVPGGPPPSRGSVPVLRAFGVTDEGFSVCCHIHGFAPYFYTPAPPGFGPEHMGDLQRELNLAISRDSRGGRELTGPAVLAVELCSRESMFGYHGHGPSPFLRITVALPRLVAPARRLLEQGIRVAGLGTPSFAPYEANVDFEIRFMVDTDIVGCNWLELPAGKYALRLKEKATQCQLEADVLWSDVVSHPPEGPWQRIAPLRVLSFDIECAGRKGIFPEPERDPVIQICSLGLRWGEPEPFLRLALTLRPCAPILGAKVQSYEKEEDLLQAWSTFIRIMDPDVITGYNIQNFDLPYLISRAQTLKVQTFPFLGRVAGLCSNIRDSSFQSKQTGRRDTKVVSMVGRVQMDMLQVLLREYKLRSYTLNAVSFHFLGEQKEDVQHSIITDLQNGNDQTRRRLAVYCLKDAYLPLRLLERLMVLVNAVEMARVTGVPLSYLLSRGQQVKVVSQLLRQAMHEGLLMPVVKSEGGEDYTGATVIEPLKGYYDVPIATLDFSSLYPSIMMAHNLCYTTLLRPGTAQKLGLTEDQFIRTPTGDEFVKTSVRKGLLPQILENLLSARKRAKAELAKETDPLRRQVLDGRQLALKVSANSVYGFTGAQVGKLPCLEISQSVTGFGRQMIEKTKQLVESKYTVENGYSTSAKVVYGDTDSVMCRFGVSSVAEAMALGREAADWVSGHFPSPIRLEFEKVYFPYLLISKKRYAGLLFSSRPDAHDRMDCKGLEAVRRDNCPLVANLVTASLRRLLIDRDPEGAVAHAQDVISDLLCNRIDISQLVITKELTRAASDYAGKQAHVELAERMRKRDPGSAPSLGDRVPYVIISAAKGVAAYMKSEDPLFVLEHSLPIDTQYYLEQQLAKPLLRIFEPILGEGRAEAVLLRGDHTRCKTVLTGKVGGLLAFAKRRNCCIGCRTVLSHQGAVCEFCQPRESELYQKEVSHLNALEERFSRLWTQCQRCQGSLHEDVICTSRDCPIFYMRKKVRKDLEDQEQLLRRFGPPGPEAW

Test [1] addresses T1, Flag-tagged DDX11 C267S (human) (UniProt Q96FC9).
T1 sequence: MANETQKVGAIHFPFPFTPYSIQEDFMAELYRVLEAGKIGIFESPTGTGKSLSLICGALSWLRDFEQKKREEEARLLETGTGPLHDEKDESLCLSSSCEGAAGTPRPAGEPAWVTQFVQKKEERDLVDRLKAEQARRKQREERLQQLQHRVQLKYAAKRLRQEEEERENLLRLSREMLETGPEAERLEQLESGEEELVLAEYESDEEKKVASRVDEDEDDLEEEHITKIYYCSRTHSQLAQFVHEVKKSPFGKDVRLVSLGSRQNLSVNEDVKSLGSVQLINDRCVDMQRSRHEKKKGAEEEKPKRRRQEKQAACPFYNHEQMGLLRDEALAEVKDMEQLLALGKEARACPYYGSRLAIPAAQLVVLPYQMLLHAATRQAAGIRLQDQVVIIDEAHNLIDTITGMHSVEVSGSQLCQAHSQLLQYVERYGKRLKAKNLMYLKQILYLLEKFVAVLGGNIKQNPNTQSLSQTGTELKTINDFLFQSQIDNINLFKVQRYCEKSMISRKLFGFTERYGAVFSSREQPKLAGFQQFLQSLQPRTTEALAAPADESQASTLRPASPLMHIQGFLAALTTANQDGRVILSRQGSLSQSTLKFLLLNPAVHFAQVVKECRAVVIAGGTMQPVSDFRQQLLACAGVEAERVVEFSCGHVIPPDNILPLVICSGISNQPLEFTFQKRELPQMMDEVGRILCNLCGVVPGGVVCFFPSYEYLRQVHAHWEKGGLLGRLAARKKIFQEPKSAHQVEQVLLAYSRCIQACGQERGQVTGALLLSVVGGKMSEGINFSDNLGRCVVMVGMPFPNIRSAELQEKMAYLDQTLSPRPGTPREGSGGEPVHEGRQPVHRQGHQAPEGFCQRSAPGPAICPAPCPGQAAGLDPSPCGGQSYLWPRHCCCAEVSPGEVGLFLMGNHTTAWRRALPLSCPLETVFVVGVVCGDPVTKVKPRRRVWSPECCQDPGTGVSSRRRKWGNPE
The experiment in a line: co-IP; Flag-tagged protein captured overnight on ANTI-FLAG M2 Affinity beads from 293T whole cell lysates (150 mM NaCl, 0.1% NP-40, treated with benzonase); beads washed three times with lysis buffer; Western blot. For orientation: A western blot detects proteins with antibodies after separation by electrophoresis.

The target in test [2] is T2, Flag-tagged DDX11 C350S (human) (UniProt Q96FC9).
T2 sequence: T1 sequence with S267C, C350S
The test is described as above.

Changes are numbered by the printed parent chain. Results are given in words; binding and its absence hold for the method and conditions named. In cells and extracts the contact can be indirect. Some entries that bind do so weakly or less than the wild type. Tags and fused reporters may be left off the sequences shown.

For the molecule “untagged POLD1 (from UniProt P28340 1-1107)”, the binding entry in test [1] and in test [2] was “binds” throughout.

B1: myc-tagged WDHD1 (protein, UniProt O75717 1-1129)
chain: MPATRKPMRYGHTEGHTEVCFDDSGSFIVTCGSDGDVRIWEDLDDDDPKFINVGEKAYSCALKSGKLVTAVSNNTIQVHTFPEGVPDGILTRFTTNANHVVFNGDGTKIAAGSSDFLVKIVDVMDSSQQKTFRGHDAPVLSLSFDPKDIFLASASCDGSVRVWQISDQTCAISWPLLQKCNDVINAKSICRLAWQPKSGKLLAIPVEKSVKLYRRESWSHQFDLSDNFISQTLNIVTWSPCGQYLAAGSINGLIIVWNVETKDCMERVKHEKGYAICGLAWHPTCGRISYTDAEGNLGLLENVCDPSGKTSSSKVSSRVEKDYNDLFDGDDMSNAGDFLNDNAVEIPSFSKGIINDDEDDEDLMMASGRPRQRSHILEDDENSVDISMLKTGSSLLKEEEEDGQEGSIHNLPLVTSQRPFYDGPMPTPRQKPFQSGSTPLHLTHRFMVWNSIGIIRCYNDEQDNAIDVEFHDTSIHHATHLSNTLNYTIADLSHEAILLACESTDELASKLHCLHFSSWDSSKEWIIDLPQNEDIEAICLGQGWAAAATSALLLRLFTIGGVQKEVFSLAGPVVSMAGHGEQLFIVYHRGTGFDGDQCLGVQLLELGKKKKQILHGDPLPLTRKSYLAWIGFSAEGTPCYVDSEGIVRMLNRGLGNTWTPICNTREHCKGKSDHYWVVGIHENPQQLRCIPCKGSRFPPTLPRPAVAILSFKLPYCQIATEKGQMEEQFWRSVIFHNHLDYLAKNGYEYEESTKNQATKEQQELLMKMLALSCKLEREFRCVELADLMTQNAVNLAIKYASRSRKLILAQKLSELAVEKAAELTATQVEEEEEEEDFRKKLNAGYSNTATEWSQPRFRNQVEEDAEDSGEADDEEKPEIHKPGQNSFSKSTNSSDVSAKSGAVTFSSQGRVNPFKVSASSKEPAMSMNSARSTNILDNMGKSSKKSTALSRTTNNEKSPIIKPLIPKPKPKQASAASYFQKRNSQTNKTEEVKEENLKNVLSETPAICPPQNTENQRPKTGFQMWLEENRSNILSDNPDFSDEADIIKEGMIRFRVLSTEERKVWANKAKGETASEGTEAKKRKRVVDESDETENQEEKAKENLNLSKKQKPLDFSTNQKLSAFAFKQE
On to B1, for which the binding result in test [1] and in test [2] was “binds” throughout.
